PubChem BioAssay AID504793 | Drosophila RNAi Screening Center – 2011
Purpose: 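Whole-genome screen for parts of the DNA damage checkpoint at G2/M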 (primary screen). System: Drosophila S2R+ cells. Reagent: long dsRNA against Drosophila genes, about 0.25 µg dsRNA per well. Time to read-out: 4 days of dsRNA, then 4 hours of drug before read-out. Challenge: doxorubicin 0.5 µM for 4 hours to cause double-strand breaks, in cells also given a low, harmless dose of dsRNA against nbs to sensitise the assay. Read-out: 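Per-well count of mitotic cells stained for phospho-histone H3 after doxorubicin exposure, used as mitotic index; counts are raw and not normalised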. Reading the numbers: mitotic cells: higher = more cells in mitosis, weaker G2 arrest. Active means: 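a call needs confirmation in secondary tests, with other dsRNAs and a check of mitotic timing without damage, not just a high primary count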. Meaning of the calls: active = confirmed in follow-up tests; inactive = not confirmed.
The deposit covers about 23,000 reagents; shown is a random part of those with a known target gene and a result. In the full data, 62 (0.27%) are marked active. 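Calls come from follow-up tests whose scores are not deposited, so confirmed genes may have low counts here; counts are not normalised per plate.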 Raw values vary from plate to plate and are shown uncorrected. No sequences are given here.

Depletion of Nup37 (Nucleoporin 37kD) [DRSC14419] came out at: mitotic cells, replicate 1 = 8; inactive. For Leash [DRSC15617] the deposit lists mitotic cells, replicate 1 = 2; inactive. Leash [DRSC28712] scored mitotic cells, replicate 1 = 7; inactive. Optix [DRSC05078] scored mitotic cells, replicate 1 = 9; inactive. Optix [DRSC07484] showed mitotic cells, replicate 1 = 4; inactive. Knock-down of Optix [DRSC21963] came out at: mitotic cells, replicate 1 = 11; inactive.

Against Optix [DRSC29089] the deposit lists mitotic cells, replicate 1 = 5; inactive. ovo [DRSC18050] gave mitotic cells, replicate 1 = 9; inactive. ovo [DRSC25801] scored mitotic cells, replicate 1 = 4; inactive. CG9702 [DRSC16540] gave mitotic cells, replicate 1 = 17; inactive. Knock-down of CG12511 [DRSC02171] came out at: mitotic cells, replicate 1 = 6; inactive. Depletion of CG2887 [DRSC18235] came out at: mitotic cells, replicate 1 = 12; inactive.

CG2887 [DRSC24167] showed mitotic cells, replicate 1 = 7; inactive. Depletion of dao (down and out) [DRSC01960] gave: mitotic cells, replicate 1 = 7; inactive. After knock-down of dao (down and out) [DRSC26014], the record shows mitotic cells, replicate 1 = 5; inactive.

2 of these entries, set out differently.
{"target gene":"dao (down and out)","DRSC id":"DRSC01960","mitotic cells, replicate 1":7,"Outcome":"inactive"}
{"target gene":"dao (down and out)","DRSC id":"DRSC26014","mitotic cells, replicate 1":5,"Outcome":"inactive"}
